Laboratory results as given in patent US20080249606A1.
No constants are given. Whether binding was seen depends on the method and setting. Some binding calls cover weakened binding; strength is not graded here.

Amino acid sequences for entries named in this document (tags omitted). Residues count along the entry.
UniProt P02769, residues 25-607: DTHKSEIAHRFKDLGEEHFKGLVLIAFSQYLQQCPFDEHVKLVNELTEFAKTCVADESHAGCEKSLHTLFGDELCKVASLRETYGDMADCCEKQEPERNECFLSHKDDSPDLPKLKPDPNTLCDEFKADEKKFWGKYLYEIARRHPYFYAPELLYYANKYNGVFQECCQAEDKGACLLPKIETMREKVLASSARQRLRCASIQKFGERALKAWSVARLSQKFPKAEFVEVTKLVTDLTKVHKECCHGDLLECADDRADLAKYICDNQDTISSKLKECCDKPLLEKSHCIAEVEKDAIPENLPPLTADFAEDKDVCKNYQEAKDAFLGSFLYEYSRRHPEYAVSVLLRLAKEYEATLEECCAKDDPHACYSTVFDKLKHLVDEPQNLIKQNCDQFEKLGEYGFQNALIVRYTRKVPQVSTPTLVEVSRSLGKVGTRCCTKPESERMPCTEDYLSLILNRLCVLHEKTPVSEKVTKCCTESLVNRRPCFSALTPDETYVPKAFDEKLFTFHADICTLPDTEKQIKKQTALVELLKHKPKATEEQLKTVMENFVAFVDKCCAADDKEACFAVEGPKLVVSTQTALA
UniProt P01012, residues 2-386: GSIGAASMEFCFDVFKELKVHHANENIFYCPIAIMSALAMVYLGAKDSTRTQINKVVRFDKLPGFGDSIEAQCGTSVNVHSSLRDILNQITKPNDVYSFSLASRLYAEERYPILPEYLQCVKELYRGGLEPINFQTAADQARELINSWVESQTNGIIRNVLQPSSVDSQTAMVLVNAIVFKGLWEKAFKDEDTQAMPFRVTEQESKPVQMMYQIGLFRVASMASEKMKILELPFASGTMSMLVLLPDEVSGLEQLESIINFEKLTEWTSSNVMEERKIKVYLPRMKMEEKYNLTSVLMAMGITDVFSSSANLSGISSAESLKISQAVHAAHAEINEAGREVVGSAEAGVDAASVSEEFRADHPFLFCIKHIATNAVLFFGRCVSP
UniProt P00750, residues 36-562: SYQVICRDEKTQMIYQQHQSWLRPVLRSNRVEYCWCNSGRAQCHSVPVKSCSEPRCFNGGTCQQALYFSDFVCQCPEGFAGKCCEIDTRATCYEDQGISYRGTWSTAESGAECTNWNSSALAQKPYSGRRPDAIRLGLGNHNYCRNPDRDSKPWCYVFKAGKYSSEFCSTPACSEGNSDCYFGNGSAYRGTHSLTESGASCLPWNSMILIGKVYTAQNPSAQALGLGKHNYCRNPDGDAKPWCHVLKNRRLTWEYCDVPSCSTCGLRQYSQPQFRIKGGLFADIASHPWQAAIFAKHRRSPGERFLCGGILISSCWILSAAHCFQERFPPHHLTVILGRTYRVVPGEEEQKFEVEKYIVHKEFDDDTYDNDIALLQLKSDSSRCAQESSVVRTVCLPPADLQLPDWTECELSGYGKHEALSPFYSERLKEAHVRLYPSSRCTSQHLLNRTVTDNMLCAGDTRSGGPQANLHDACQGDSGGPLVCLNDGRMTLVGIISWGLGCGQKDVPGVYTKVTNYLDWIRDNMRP

Tests used:
[1] = biological target: Bovine serum albumin (BSA) (bovine) (UniProt P02769); assay: ELISA, BSA coated on Nunc Immobilizer Amino, Greiner Microlon and Costar 2595 plates, tPA in 10 mM εACA, detection with antibody 374b
[2] = biological target: ovalbumin (OVA, A-7641, Sigma-Aldrich) (UniProt P01012); assay: ELISA, OVA coated on Nunc Immobilizer Amino, Greiner Microlon and Costar 2595 plates, tPA in 10 mM εACA, detection with antibody 374b

binding [1]: binds
binding [2]: binds
Substance: tissue-type plasminogen activator (tPA, Actilyse, Boehringer-Ingelheim) (from UniProt P00750 36-562) (enzyme)
